This is an account of results in article doi:10.1101/2022.03.07.483153.

Results are given in words; binding and its absence hold for the method and conditions named. In cells and extracts the contact can be indirect. Some entries that bind do so weakly or less than the wild type. Tags and fused reporters may be left off the sequences shown.

For assay [1], the target named is T1, RBM-39 (C. elegans ortholog of RBM39), mKate2 tagged at the endogenous locus (C. elegans) (UniProt Q9N368).
T1 sequence: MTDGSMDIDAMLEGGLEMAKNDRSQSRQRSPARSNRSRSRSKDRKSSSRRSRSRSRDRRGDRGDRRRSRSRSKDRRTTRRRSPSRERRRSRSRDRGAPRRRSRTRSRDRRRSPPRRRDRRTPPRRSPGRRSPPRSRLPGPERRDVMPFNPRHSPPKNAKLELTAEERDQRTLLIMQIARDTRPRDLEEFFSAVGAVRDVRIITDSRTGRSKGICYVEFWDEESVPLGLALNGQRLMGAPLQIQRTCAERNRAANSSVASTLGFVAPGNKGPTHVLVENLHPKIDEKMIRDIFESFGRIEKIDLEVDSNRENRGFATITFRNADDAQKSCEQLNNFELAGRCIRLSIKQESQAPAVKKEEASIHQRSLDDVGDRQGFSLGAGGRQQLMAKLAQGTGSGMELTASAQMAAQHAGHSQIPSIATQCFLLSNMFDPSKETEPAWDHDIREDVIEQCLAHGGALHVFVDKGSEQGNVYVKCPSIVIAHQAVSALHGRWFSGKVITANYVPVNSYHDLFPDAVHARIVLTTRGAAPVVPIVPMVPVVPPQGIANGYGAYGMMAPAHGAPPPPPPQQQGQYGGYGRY
The experiment in a line: co-IP.

Assay [2] concerns the target T2, RNP-6 (C. elegans ortholog of PUF60), HA tagged at the endogenous locus (C. elegans) (UniProt Q9N3S4).
T2 sequence: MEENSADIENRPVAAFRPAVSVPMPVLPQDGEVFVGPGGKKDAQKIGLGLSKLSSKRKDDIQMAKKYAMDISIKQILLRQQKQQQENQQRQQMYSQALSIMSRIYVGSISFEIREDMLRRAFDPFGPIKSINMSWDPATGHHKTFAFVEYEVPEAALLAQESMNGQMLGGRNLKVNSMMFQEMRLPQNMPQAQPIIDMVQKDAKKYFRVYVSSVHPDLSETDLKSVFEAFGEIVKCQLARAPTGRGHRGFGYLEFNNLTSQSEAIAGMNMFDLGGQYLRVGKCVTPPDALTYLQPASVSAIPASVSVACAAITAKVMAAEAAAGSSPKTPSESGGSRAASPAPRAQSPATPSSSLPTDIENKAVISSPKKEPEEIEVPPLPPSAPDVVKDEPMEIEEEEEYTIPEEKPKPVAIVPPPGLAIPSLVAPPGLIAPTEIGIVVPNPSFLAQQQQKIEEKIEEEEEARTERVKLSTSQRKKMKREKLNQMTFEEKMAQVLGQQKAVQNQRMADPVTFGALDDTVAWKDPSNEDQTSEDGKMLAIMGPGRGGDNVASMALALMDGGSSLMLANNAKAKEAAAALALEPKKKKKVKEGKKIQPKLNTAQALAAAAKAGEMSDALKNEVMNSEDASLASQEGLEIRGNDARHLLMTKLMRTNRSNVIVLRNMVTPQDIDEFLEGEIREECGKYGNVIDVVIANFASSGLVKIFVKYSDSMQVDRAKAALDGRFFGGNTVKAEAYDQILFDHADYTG
The experiment in a line: co-IP.

B1: RNP-6 (C. elegans ortholog of PUF60), HA tagged at the endogenous locus (protein, UniProt Q9N3S4 1-749)
chain: MEENSADIENRPVAAFRPAVSVPMPVLPQDGEVFVGPGGKKDAQKIGLGLSKLSSKRKDDIQMAKKYAMDISIKQILLRQQKQQQENQQRQQMYSQALSIMSRIYVGSISFEIREDMLRRAFDPFGPIKSINMSWDPATGHHKTFAFVEYEVPEAALLAQESMNGQMLGGRNLKVNSMMFQEMRLPQNMPQAQPIIDMVQKDAKKYFRVYVSSVHPDLSETDLKSVFEAFGEIVKCQLARAPTGRGHRGFGYLEFNNLTSQSEAIAGMNMFDLGGQYLRVGKCVTPPDALTYLQPASVSAIPASVSVACAAITAKVMAAEAAAGSSPKTPSESGGSRAASPAPRAQSPATPSSSLPTDIENKAVISSPKKEPEEIEVPPLPPSAPDVVKDEPMEIEEEEEYTIPEEKPKPVAIVPPPGLAIPSLVAPPGLIAPTEIGIVVPNPSFLAQQQQKIEEKIEEEEEARTERVKLSTSQRKKMKREKLNQMTFEEKMAQVLGQQKAVQNQRMADPVTFGALDDTVAWKDPSNEDQTSEDGKMLAIMGPGRGGDNVASMALALMDGGSSLMLANNAKAKEAAAALALEPKKKKKVKEGKKIQPKLNTAQALAAAAKAGEMSDALKNEVMNSEDASLASQEGLEIRGNDARHLLMTKLMRTNRSNVIVLRNMVTPQDIDEFLEGEIREECGKYGNVIDVVIANFASSGLVKIFVKYSDSMQVDRAKAALDGRFFGGNTVKAEAYDQILFDHADYTG
Regarding B1, the binding result in assay [1] is listed as “binds”.

B2: RBM-39 (C. elegans ortholog of RBM39), mKate2 tagged at the endogenous locus (protein, UniProt Q9N368 1-580)
chain: MTDGSMDIDAMLEGGLEMAKNDRSQSRQRSPARSNRSRSRSKDRKSSSRRSRSRSRDRRGDRGDRRRSRSRSKDRRTTRRRSPSRERRRSRSRDRGAPRRRSRTRSRDRRRSPPRRRDRRTPPRRSPGRRSPPRSRLPGPERRDVMPFNPRHSPPKNAKLELTAEERDQRTLLIMQIARDTRPRDLEEFFSAVGAVRDVRIITDSRTGRSKGICYVEFWDEESVPLGLALNGQRLMGAPLQIQRTCAERNRAANSSVASTLGFVAPGNKGPTHVLVENLHPKIDEKMIRDIFESFGRIEKIDLEVDSNRENRGFATITFRNADDAQKSCEQLNNFELAGRCIRLSIKQESQAPAVKKEEASIHQRSLDDVGDRQGFSLGAGGRQQLMAKLAQGTGSGMELTASAQMAAQHAGHSQIPSIATQCFLLSNMFDPSKETEPAWDHDIREDVIEQCLAHGGALHVFVDKGSEQGNVYVKCPSIVIAHQAVSALHGRWFSGKVITANYVPVNSYHDLFPDAVHARIVLTTRGAAPVVPIVPMVPVVPPQGIANGYGAYGMMAPAHGAPPPPPPQQQGQYGGYGRY
Regarding B2, the binding result in assay [2] is “binds”.
